From the supplement of paper PMC10849652
The list shows a part of the results.

By UniProt entry, the sequences of proteins in these tests, tags left out. Where a name states a change or a piece, a line headed by the entry shows the natural chain unless it says otherwise.
UniProt Q8N0W3: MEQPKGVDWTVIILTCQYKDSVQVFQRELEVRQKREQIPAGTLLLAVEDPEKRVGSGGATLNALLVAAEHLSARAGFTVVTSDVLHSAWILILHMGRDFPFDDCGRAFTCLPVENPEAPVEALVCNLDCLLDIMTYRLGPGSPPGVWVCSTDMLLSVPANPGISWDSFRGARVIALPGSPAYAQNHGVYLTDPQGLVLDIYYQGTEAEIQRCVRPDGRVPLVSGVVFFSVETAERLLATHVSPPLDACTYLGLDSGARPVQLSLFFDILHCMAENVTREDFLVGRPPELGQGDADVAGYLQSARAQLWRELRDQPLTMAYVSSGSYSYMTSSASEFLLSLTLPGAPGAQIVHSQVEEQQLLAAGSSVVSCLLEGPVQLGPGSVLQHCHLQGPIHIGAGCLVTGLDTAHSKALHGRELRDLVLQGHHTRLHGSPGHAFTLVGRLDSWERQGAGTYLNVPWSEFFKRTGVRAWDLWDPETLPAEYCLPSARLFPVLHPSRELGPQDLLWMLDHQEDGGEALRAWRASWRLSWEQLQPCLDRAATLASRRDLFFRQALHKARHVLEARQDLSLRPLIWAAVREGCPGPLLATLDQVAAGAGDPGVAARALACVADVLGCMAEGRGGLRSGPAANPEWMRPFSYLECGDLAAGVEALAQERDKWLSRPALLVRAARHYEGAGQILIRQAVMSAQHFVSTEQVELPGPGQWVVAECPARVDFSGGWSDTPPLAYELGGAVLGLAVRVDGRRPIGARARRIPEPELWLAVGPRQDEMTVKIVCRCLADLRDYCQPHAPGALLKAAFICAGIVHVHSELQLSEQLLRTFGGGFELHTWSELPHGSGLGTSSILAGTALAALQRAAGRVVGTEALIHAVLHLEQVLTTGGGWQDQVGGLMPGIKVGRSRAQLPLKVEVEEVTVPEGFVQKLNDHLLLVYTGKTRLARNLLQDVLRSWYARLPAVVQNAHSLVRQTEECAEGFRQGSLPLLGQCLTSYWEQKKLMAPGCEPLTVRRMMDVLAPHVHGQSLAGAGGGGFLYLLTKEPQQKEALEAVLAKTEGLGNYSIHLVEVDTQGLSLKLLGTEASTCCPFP
UniProt P14324: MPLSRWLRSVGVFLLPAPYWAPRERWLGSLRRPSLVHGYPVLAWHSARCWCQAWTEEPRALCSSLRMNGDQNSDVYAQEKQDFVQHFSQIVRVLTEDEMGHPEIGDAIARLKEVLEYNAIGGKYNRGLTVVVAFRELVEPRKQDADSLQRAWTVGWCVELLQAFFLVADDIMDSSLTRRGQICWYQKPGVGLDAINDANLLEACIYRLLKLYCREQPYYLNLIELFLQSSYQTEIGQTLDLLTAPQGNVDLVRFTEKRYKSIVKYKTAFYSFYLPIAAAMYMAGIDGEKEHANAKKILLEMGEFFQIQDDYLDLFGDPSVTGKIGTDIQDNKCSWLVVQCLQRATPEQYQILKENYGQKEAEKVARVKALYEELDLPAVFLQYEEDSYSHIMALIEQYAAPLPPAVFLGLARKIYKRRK
UniProt O95302: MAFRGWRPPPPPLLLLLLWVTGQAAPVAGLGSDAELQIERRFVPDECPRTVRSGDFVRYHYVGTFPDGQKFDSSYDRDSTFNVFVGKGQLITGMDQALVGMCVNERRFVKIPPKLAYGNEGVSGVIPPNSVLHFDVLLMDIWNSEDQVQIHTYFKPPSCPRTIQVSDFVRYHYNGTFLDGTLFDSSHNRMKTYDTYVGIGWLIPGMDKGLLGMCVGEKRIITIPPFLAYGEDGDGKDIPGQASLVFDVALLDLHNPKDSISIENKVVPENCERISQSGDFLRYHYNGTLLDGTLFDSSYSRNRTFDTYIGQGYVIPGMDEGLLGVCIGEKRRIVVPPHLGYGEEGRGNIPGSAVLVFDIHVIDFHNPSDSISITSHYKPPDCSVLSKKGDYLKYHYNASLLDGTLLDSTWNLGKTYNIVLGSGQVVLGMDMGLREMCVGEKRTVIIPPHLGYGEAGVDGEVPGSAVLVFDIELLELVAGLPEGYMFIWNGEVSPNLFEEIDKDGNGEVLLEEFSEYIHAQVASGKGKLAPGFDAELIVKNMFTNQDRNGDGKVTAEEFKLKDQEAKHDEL
UniProt Q6PJ61: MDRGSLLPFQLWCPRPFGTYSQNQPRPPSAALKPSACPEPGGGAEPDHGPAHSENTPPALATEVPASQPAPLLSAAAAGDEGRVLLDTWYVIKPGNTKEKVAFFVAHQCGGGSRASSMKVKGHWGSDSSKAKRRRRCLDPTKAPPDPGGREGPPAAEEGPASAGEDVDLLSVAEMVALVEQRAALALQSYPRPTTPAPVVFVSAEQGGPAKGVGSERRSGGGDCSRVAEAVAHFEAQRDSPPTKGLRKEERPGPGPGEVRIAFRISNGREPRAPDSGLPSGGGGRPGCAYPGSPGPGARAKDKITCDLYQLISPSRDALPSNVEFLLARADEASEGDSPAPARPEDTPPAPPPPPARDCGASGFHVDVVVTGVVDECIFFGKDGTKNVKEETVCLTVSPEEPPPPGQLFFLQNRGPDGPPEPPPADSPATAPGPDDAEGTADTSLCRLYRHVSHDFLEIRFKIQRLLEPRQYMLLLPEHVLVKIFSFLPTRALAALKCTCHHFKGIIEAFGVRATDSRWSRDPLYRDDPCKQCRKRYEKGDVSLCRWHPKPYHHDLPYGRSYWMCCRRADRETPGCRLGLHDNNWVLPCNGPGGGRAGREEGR
UniProt Q9Y680: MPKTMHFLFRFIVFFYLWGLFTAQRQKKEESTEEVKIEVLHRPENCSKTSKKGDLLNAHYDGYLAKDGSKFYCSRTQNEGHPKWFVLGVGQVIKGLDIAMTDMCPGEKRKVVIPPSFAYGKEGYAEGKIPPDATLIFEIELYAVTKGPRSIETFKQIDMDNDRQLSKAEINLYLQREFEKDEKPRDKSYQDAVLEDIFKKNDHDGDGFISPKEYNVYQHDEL
UniProt P21333, whole entry, looked up: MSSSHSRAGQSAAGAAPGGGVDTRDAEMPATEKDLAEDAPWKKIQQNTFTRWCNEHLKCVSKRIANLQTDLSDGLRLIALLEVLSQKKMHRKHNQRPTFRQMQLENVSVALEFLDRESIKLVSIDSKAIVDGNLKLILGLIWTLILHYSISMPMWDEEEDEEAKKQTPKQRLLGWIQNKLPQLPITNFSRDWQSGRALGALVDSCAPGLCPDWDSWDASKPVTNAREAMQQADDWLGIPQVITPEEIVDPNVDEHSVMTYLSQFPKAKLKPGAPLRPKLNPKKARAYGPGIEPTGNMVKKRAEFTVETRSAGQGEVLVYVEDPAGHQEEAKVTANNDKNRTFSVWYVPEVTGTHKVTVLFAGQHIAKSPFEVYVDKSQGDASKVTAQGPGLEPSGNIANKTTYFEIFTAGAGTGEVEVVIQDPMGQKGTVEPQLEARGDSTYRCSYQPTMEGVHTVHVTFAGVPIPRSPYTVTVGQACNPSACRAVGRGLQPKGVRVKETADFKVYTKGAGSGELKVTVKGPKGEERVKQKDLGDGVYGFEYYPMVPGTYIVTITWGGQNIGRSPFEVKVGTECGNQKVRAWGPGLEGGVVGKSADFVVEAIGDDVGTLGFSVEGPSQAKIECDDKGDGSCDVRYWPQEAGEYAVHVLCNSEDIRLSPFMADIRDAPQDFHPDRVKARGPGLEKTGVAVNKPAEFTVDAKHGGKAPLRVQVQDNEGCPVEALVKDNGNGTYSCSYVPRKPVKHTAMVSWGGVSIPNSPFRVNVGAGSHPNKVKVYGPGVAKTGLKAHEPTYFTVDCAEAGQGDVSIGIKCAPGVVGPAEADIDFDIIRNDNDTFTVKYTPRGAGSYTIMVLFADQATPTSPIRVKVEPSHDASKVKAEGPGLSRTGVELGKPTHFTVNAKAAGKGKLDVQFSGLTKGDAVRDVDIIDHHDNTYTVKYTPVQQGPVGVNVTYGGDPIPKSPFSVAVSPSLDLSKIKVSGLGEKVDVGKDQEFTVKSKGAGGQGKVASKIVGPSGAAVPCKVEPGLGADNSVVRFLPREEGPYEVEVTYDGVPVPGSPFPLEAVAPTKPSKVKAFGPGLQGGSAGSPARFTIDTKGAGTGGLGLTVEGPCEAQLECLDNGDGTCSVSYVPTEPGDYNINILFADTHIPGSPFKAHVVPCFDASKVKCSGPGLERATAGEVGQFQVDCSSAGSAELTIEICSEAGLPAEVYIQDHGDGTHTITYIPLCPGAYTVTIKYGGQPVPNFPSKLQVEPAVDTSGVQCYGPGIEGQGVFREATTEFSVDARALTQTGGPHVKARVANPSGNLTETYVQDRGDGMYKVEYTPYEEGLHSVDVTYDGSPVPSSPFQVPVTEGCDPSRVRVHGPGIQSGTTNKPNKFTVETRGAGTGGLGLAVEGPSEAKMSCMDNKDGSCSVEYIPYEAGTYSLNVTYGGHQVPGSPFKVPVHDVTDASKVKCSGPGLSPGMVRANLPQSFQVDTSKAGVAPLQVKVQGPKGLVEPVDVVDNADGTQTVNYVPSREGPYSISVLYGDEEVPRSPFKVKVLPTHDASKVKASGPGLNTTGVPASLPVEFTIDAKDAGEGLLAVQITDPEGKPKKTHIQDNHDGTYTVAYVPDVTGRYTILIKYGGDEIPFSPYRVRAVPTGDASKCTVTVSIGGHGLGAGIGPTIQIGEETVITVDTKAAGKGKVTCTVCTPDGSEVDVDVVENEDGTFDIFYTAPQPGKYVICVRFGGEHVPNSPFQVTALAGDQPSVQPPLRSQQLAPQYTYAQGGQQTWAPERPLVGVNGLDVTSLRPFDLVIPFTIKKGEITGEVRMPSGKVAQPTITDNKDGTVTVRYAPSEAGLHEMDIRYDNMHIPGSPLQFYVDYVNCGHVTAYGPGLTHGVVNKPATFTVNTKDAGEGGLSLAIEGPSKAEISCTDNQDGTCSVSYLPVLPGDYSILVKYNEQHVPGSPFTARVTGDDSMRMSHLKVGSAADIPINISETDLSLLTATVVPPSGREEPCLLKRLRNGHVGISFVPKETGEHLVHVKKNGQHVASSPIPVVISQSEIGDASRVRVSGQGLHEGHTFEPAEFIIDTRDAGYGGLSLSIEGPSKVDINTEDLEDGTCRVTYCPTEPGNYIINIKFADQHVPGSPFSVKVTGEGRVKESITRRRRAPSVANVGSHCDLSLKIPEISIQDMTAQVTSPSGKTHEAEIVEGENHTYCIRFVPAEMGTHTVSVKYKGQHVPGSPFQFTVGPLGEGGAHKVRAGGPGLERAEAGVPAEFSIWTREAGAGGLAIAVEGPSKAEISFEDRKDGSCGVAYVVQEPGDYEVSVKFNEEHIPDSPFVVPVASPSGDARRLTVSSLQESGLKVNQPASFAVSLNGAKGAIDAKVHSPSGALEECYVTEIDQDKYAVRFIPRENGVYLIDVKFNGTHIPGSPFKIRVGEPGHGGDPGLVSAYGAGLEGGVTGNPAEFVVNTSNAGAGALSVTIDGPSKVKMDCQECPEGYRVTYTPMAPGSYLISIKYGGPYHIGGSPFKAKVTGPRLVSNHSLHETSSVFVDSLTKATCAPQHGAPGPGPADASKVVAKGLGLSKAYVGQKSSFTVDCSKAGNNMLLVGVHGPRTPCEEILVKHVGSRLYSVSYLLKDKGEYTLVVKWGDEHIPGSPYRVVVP
UniProt Q86UX7, whole entry, looked up: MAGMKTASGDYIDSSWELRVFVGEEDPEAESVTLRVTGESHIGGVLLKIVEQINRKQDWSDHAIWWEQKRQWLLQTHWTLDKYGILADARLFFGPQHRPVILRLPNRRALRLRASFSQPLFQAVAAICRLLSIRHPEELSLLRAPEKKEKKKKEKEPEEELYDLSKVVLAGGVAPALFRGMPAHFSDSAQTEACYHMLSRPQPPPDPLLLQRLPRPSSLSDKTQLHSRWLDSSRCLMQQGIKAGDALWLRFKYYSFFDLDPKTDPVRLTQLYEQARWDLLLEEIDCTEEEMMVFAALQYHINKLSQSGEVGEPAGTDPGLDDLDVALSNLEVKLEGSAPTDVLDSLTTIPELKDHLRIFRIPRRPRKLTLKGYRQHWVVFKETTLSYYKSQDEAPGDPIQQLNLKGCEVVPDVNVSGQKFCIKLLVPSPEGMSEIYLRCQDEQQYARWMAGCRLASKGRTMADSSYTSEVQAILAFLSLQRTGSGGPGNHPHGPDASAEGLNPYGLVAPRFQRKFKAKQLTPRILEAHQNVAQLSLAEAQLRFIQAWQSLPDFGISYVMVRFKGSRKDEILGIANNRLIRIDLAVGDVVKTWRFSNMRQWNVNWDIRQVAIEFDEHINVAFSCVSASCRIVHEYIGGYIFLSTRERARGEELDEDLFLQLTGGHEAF
UniProt Q96GI7: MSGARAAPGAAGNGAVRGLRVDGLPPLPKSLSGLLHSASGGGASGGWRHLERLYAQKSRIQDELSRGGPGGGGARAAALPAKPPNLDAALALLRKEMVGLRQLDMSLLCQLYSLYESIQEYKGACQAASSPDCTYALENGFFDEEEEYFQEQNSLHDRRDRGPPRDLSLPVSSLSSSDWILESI

What was measured:
Test in all cases: log2 fold change, soluble protein after heating vs DMSO (PISA); higher = thermal stabilisation; K562 lysate, 10 uM; active = over 0.2 and 3.5 SD of the protein, either way, in both replicates (recomputed)
lapatinib = compound: CS(=O)(=O)CCNCc1ccc(-c2ccc3ncnc(Nc4ccc(OCc5cccc(F)c5)c(Cl)c4)c3c2)o1 [lapatinib]
Summary of the method: (§1)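 Soluble protein was defined as the supernatant remaining after 21,000xg for 90 min, following pooling of heated aliquots and adjustment to 0.5% NP-40 at 4°C. Before that, crude K562 extract at 1 mg/mL protein in PBS pH 7.4 with 1 mM MgCl2 was treated with 10 μM compound for 30 min and heated for 3 min across 48°C-58°C. Quantification used TMTpro 16plex LC-MS/MS with channel sums equalised, and values are log-two fold changes in thermal stability relative to solvent controls from duplicates.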

pictilisib = compound: CS(=O)(=O)N1CCN(Cc2cc3nc(-c4cccc5[nH]ncc45)nc(N4CCOCC4)c3s2)CC1 [pictilisib]
Summary of the method: as §1

crizotinib = compound: C[C@@H](Oc1cc(-c2cnn(C3CCNCC3)c2)cnc1N)c1c(Cl)ccc(F)c1Cl [crizotinib]
Summary of the method: as §1

[1] = compound: C[C@H](C1=CC=C(C=C1)C(=O)NC2=C3C=CNC3=NC=C2)N
Summary of the method: as §1

duvelisib = compound: C[C@H](Nc1ncnc2nc[nH]c12)c1cc2cccc(Cl)c2c(=O)n1-c1ccccc1 [duvelisib]
Summary of the method: as §1

gandotinib = compound: Cc1cc(Nc2cc(CN3CCOCC3)c3nc(C)c(Cc4ccc(Cl)cc4F)n3n2)n[nH]1 [gandotinib]
Summary of the method: as §1

tozasertib = compound: Cc1cc(Nc2cc(N3CCN(C)CC3)nc(Sc3ccc(NC(=O)C4CC4)cc3)n2)n[nH]1 [tozasertib]
Summary of the method: as §1

doramapimod = compound: Cc1ccc(-n2nc(C(C)(C)C)cc2NC(=O)Nc2ccc(OCCN3CCOCC3)c3ccccc23)cc1 [doramapimod]
Summary of the method: as §1

bafetinib = compound: Cc1ccc(NC(=O)c2ccc(CN3CC[C@H](N(C)C)C3)c(C(F)(F)F)c2)cc1Nc1nccc(-c2cncnc2)n1 [bafetinib]
Summary of the method: as §1

[2] = compound: Cc1cccc(CC(=O)N2CCc3c2ccc(-c2cn(C)c4ncnc(N)c24)c3F)n1
Summary of the method: as §1

nilotinib = compound: Cc1cn(-c2cc(NC(=O)c3ccc(C)c(Nc4nccc(-c5cccnc5)n4)c3)cc(C(F)(F)F)c2)cn1 [nilotinib]
Summary of the method: as §1

[3] = compound: Cc1nc(Nc2n[nH]c3c2CN(C(=O)N[C@H](CN(C)C)c2ccccc2)C3(C)C)c2sccc2n1
Summary of the method: as §1

dasatinib = compound: Cc1nc(Nc2ncc(C(=O)Nc3c(C)cccc3Cl)s2)cc(N2CCN(CCO)CC2)n1 [dasatinib]
Summary of the method: as §1

[4] = compound: Cc1ncc(-c2ccnc(Nc3ccc(S(C)(=O)=O)cc3)n2)n1C(C)C
Summary of the method: as §1

[5] = compound: Cn1cc(-c2ccc3c(c2)CCN3C(=O)Cc2cccc(C(F)(F)F)c2)c2c(N)ncnc21
Summary of the method: as §1

quisinostat = compound: Cn1cc(CNCC2CCN(c3ncc(C(=O)NO)cn3)CC2)c2ccccc21 [quisinostat]
Summary of the method: as §1

tipifarnib = compound: Cn1cncc1[C@@](N)(c1ccc(Cl)cc1)c1ccc2c(c1)c(-c1cccc(Cl)c1)cc(=O)n2C [tipifarnib]
Summary of the method: as §1

[6] = compound: NC(=O)Nc1cc(-c2cccc(F)c2)sc1C(=O)N[C@H]1CCCNC1
Summary of the method: as §1

[7] = compound: NC(=O)c1cnc(N[C@@H]2CCCC[C@@H]2N)nc1Nc1cccc(-n2nccn2)c1
Summary of the method: as §1

[8] = compound: NC1(c2ccc(-c3nc4ccn5c(=O)[nH]nc5c4cc3-c3ccccc3)cc2)CCC1
Summary of the method: as §1

Measured: log2 fold change

FCSK (UniProt Q8N0W3)
inactive: lapatinib 0.006 | pictilisib -0.023 | crizotinib -0.01 | [1] -0.092 | duvelisib 0.018 | gandotinib 0.031 | tozasertib 0.017 | doramapimod -0.004 | bafetinib -0.014 | [2] 0.041 | nilotinib 0.005 | [3] 0.008 | dasatinib 0.027 | [4] -0.026 | [5] 0.022 | quisinostat -0.042 | tipifarnib 0.066 | [6] 0.059 | [7] 0.001 | [8] 0.012

FDPS (UniProt P14324)
inactive: lapatinib -0.015 | pictilisib 0.008 | crizotinib -0.085 | [1] -0.034 | duvelisib 0.008 | gandotinib -0.023 | tozasertib 0 | doramapimod -0.021 | bafetinib -0.035 | [2] 0.059 | nilotinib 0.044 | [3] 0.1 | dasatinib -0.044 | [4] 0.001 | [5] 0.023 | quisinostat -0.07 | tipifarnib 0 | [6] 0.033 | [7] 0.003 | [8] -0.037

FKBP9 (UniProt O95302)
inactive: lapatinib -0.058 | pictilisib -0.002 | crizotinib 0.004 | [1] -0.005 | duvelisib -0.025 | gandotinib 0.03 | tozasertib 0.051 | doramapimod -0.014 | bafetinib -0.011 | [2] 0.01 | nilotinib -0.008 | [3] 0.012 | dasatinib 0.075 | [4] -0.008 | [5] 0.017 | quisinostat -0.024 | tipifarnib -0.057 | [6] 0.041 | [7] -0.023 | [8] 0.002

FBXO46 (UniProt Q6PJ61)
inactive: lapatinib -0.198 | pictilisib 0.02 | crizotinib -0.01 | [1] -0.327 | duvelisib -0.015 | gandotinib 0.01 | tozasertib -0.074 | doramapimod 0.073 | bafetinib -0.043 | [2] -0.002 | nilotinib 0.001 | [3] -0.009 | dasatinib 0 | [4] -0.047 | [5] 0.041 | quisinostat -0.018 | tipifarnib 0.088 | [6] -0.01 | [7] 0.081

FKBP7 (UniProt Q9Y680)
inactive: lapatinib -0.011 | pictilisib -0.029 | crizotinib 0.019 | [1] 0.084 | duvelisib 0.018 | gandotinib 0.001 | tozasertib 0.058 | doramapimod 0.031 | bafetinib 0.171 | [2] -0.028 | nilotinib -0.005 | [3] 0.018 | dasatinib -0.01 | [4] 0.074 | [5] -0.038 | quisinostat -0.045 | tipifarnib 0.13 | [6] 0.024 | [7] 0.039 | [8] -0.019

FLNA (UniProt P21333)
inactive: lapatinib -0.02 | pictilisib -0.008 | crizotinib -0.009 | [1] -0.082 | duvelisib -0.006 | gandotinib 0.025 | tozasertib -0.016 | doramapimod -0.009 | bafetinib 0.014 | [2] 0.031 | nilotinib 0.004 | [3] 0.001 | dasatinib -0.029 | [4] 0.016 | [5] -0.049 | quisinostat 0.009 | tipifarnib 0.006 | [6] -0.017 | [7] -0.015 | [8] 0.015

FERMT3 (UniProt Q86UX7)
inactive: lapatinib -0.01 | pictilisib 0.002 | crizotinib -0.002 | [1] -0.046 | duvelisib -0.004 | gandotinib 0.046 | tozasertib 0.007 | doramapimod -0.013 | bafetinib -0.045 | [2] 0.055 | nilotinib -0.017 | [3] -0.002 | dasatinib -0.01 | [4] -0.016 | [5] -0.008 | quisinostat -0.016 | tipifarnib -0.014 | [6] 0.002 | [7] -0.013 | [8] -0.025

FAM89A (UniProt Q96GI7)
inactive: lapatinib 0.108 | pictilisib 0.035 | crizotinib -0.049 | [1] 0.036 | duvelisib -0.093 | gandotinib -0.035 | tozasertib -0.02 | doramapimod -0.028 | bafetinib 0.113 | [2] -0.039 | nilotinib 0.009 | [3] -0.132 | dasatinib -0.024 | [4] -0.005 | [5] -0.019 | quisinostat -0.02 | tipifarnib 0.025 | [6] 0.033 | [7] 0.116 | [8] 0.044
